# Measurements published in PubChem BioAssay AID1347423 (Functional Genomics Laboratory (NCATS/FGL), 2020).
# Hit rate of the full screen: of about 52,000 sequences, about 210 (0.4%) were called active.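 Rule for the calls: active = gene whose silencing raises cell survival under the drug, median off-target-corrected z-score across its silencing RNAs 2 or more; inactive = the rest.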 Some of the results follow.
# Test: Resistance to Poly (ADP-Ribose) Polymerase inhibitor: Gene Identification via Genome-wide siRNA Screen
# Conditions: mouse BRCA2 R2336H ES cells, olaparib, CellTiter-Glo viability; active compounds read high
# Outline: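 Mouse BRCA2 R2336H ES cells were reverse-transfected with siRNA (20 nM final), treated at 48 h with 500 nM olaparib, and read by CellTiter-Glo after 72 h. Scores: MAD-based z per siRNA, median per gene, seed off-target correction.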
row,Sequence,z-score
1,GGACAAAGAGGCAAUGGGATT against Dnajb9,inactive: 0.614
2,GGACAUGUUUGGUGACUAUTT against Hel308-pending,inactive: -1.09
3,GCUCGAUUCAGUCAUUGAGTT against Ak2,inactive: -0.864
4,GGAAAGCCAUCGAAUUUCCTT against Il17re,inactive: -0.344
5,GCACUUUGGUUUUACCGCCTT against Zfp385,inactive: 1.29
6,CGGUGAUCGUCAUUUUAUUTT against Ap4m1,inactive: 0.616
7,GCACGACACUCUGUGCAUCTT against BC037135,inactive: 0.875
8,GCAAGUUACCAGGAUGCAATT against Pglyrp3,inactive: -0.57
9,GGGAUUUUGUACAUUUUUGTT against Egln3,inactive: -0.414
10,GCGUGAUUCCAGUUUACAUTT against Mapk6,inactive: 1.66
11,GCAGUCACUUUUUAGUAUCTT against V1rb4,inactive: 0.464
12,CCUUCGAUUGAUCUCUAAGTT against Eif4e,inactive: -1.54
13,GGGCUAAAUUCAUGGGUUCTT against Timp1,inactive: -1.55
14,GGACAGCUUCAUCAAGCCUTT against 2610507L03Rik,inactive: 0.916
15,GGCAAAUAGAGUGUGAACATT against Lgals12,inactive: -1.27
16,GGUGGAAGAUAUCAACUAGTT against Hip2,inactive: -0.168
17,GGUUCUGGAUUUCAUCACGTT against Coasy,inactive: 0.299
18,GCUUUCCUACGUUUGAAAUTT against Coro1c,inactive: 0.42
19,GGGAAAAUGCGAUUCAUGATT against P2ry14,inactive: 0.668
20,GGACAUUUAUCCCAUGACATT against Coro2b,inactive: 0.473
21,CCCUCCUCAGUAUUGUACUTT against Dtx2,inactive: -0.518
22,GCAAAAUUUGGCUUAAAGATT against Bank1,inactive: 0.438
23,CCAUCUAUGGUAUGGAGCGTT against Abcg4,inactive: 0.0082
24,GUGAACUCUUAUCGAUUACTT against V1rb8,inactive: -0.0669
25,GGUAACCAUCAAAUAUUCCTT against Usp52,inactive: -1.16
26,GGUGAACUUCAUCUUCUCUTT against 1200011O22Rik,inactive: -1.08
27,UAGCCCAGCCUUCUUUUCCTT against Olfr658,inactive: -0.869

row,Sequence,z-score
1,GGAGAAACGGGUUUUUCAATT against Nfrkb,inactive: -0.0258
2,CCAGAACCAGACGCGUAACTT against Cox6b2,inactive: 0.0858
3,GGAGGCAGAUGCUGGAAUCTT against Defb3,inactive: 1.89
4,GCUUGAAUUUCUGUGGAGGTT against Olfr1320,inactive: 1.13
5,GCGGAUAAGAUUGAUGUAGTT against Degs,inactive: 0.886
6,GGUCAAUAUCUUGAUGGUATT against V1rh6,inactive: 0.875
7,CGGCUCCAGGCAAAUAUGGTT against Ezh1,inactive: -1.78
8,GGUGCGCUUCUAUGUUCCUTT against Ssrp1,inactive: -1.33
9,GGUAUGUCUAAGAAAACCATT against Pik4ca,inactive: 2.28
10,GCGGUGAACUACCAUUACCTT against BC051244,inactive: -1.06
11,GCACAACAUAUGUUCCGCCTT against Pard3,inactive: 1.8
12,GGGUCCUCAACACUUCAUATT against Gast,inactive: -1.41
13,GGAGACUAUCCUCAUUAUUTT against Smarca4,inactive: 0.674
14,GGAAAGGUUUAAUCAUGAATT against Spred1,inactive: 2.34
15,GAACUCCAGGGUAUAGUCUTT against Prss3,inactive: 0.536
16,GGGAAAACACAGAAUGCUATT against Brp44l,inactive: 0.518
17,CCCUGACGAAGCCAUACAUTT against Bcor,inactive: -1.33
18,GGUCCACACCAGACAUCAATT against Wfdc5,inactive: -0.101
19,GCUCCUAACUUUUGUCAUATT against Ppp3r2,inactive: 0.272
20,GGCCUUUUCACAACACUAUTT against BC003267,inactive: -0.413
21,CGUGUACAUGCUCUACUUUTT against Lypla3,inactive: -0.338
22,CCAUGAAAGUCACUUGUAUTT against Map2k6,inactive: -0.733
23,CGGCCUACAACUACCCAACTT against Tekt3,inactive: 0.415
24,CGUGUUUUAUGUCCGUCAUTT against 9330154K18Rik,inactive: 1.22
25,GGCUUCGAUGUGUUUAUGCTT against E130319B15Rik,inactive: 0.524
26,GGAAUGCACAAAUUGAAAATT against Edn1,inactive: 0.173
27,GGAGUGCAGUCACUAUUUGTT against Il2rg,inactive: -1.04

# Reformatted bar-delimited: entries from further up.
row | Sequence | z-score
16 | GGUGGAAGAUAUCAACUAGTT against Hip2 | inactive: -0.168
19 | GGGAAAAUGCGAUUCAUGATT against P2ry14 | inactive: 0.668
5 | GCGGAUAAGAUUGAUGUAGTT against Degs | inactive: 0.886
26 | GGAAUGCACAAAUUGAAAATT against Edn1 | inactive: 0.173

# Next records follow:

row,Sequence,z-score
1,GGAGAGUGCUCAAUAAGACTT against 1300002C08Rik,inactive: -0.219
2,GGAAGAACUGGAAUGAUAUTT against Clecsf9,inactive: -1.15
3,GGGCUGGAAUUCUUUUGUGTT against C130090K23Rik,inactive: -1.37
4,GGCUGGAAUCGAUCAUUUCTT against 3830417A13Rik,inactive: 1.28
5,GGAGUUUGGAAUAAAAAGGTT against Flt3,inactive: 0.00317
6,GGUUCACGUAUUAAAAACATT against Cryz,inactive: 0.252
7,GGAUAGCAACAGAAAACGUTT against Lgi3,inactive: 0.453
8,GGGCCUGAAGUAUGAAUGGTT against Lsm5,inactive: -2.17
9,GGUACUUUAAUGCUGAGGATT against 5730436H21Rik,inactive: 0.03
10,AUAUCAGACUGACAUAGCATT against Obox5,inactive: 1.84
11,GGGUUCUCAAGAAUUAAAGTT against Fbn1,inactive: 1.02
12,GCACGGAUUAAUGUGAUGATT against Ilk,inactive: 0.147
13,GGACGACAACGACAUCAUGTT against Sfrp2,inactive: 0.0688
14,GCCGUAUGGAGCCAUAGCUTT against Tes,inactive: 0.932
15,GGAGGGAAAUUUGGGACUUTT against 0610039J04Rik,inactive: 1.35
16,GGAAGAUGAACAUCAAACATT against 9030617O03Rik,inactive: 1.22
17,GCCGUUUUAAGAUACCGAUTT against Pde1c,inactive: 0.0937
18,GCGUGUGAAGGCAACCAUUTT against Nos3,inactive: -1
19,GGACACAGGACUCUACACCTT against Psg16,inactive: 1.52
20,GGAAAAAAAGCAAAUGAUCTT against Ndufa10,inactive: -1.06
21,CGACUUGGGUUUUCACGGCTT against Arsb,inactive: -0.362
22,GGUGGAGAUGGAAAUUGUCTT against Lmod2,inactive: 0.358
23,GGCCCAUCACUUACUAAAGTT against C730015A04Rik,inactive: 0.197
24,GGACUGGAAAAUCGGCUUCTT against Scnn1a,inactive: 0.357
25,GCUGUGGGAGGAUAGCAUGTT against 2310010G13Rik,inactive: 0.408
26,CCAUUGCACUGCGCCAACATT against 1700001O22Rik,inactive: 0.642
27,GGAUCUUCUGCCGUCUUGATT against Creb5,inactive: -2.86

# Part of the list above, bar-delimited.
row | Sequence | z-score
22 | GGUGGAGAUGGAAAUUGUCTT against Lmod2 | inactive: 0.358
23 | GGCCCAUCACUUACUAAAGTT against C730015A04Rik | inactive: 0.197

# Further results follow.

row,Sequence,z-score
1,CCUGAACAUAAAGUUUACUTT against Catsper4,inactive: 1.86
2,GGUACAAACUGUUACAUUUTT against Col12a1,inactive: 0.424
3,CCCGUCCCAUCCAUUAUUUTT against 2210018M03Rik,inactive: 0.795
4,GGAUACCAUCCUAGGCCUGTT against Abhd9,inactive: 0.644
5,GCGUGGAGAUAAAACCAAUTT against Phka2,inactive: 0.416
6,GGCCGAUGCCAAAUUGGUATT against Olfm1,inactive: -0.701
7,GCAGGUACCCGGAUUGUCATT against Acr,inactive: -0.233
8,GCCUUGGUCCUUAAAUAUATT against Slc7a2,inactive: -0.206
9,GGAGGAUGAAGAGCUAUUATT against Smarca5,inactive: -1.14
10,AUUUACGGGAGAUCAGCUUTT against Olfr670,inactive: 0.35
11,GGAAGUGUCUUUAAACUUCTT against 1700034J06Rik,inactive: 1.06
12,GCAAGCCAAGCACUUCAUUTT against Ppp1cc,inactive: -1.29
13,GGAGUUCCUUUUUAAACACTT against Bnip3,inactive: 0.219
14,GGUACUACAAGCUAGCUGUTT against Scd4,inactive: -0.037
15,CCCAGCUUUCAUCCUUUGUTT against 2900064A13Rik,inactive: -0.755
16,GGAACCAGUGGCUUAGGAATT against 2810417H13Rik,inactive: -0.259
17,CCCACGAGCAAUAAAAUUGTT against D15Ertd735e,inactive: 1.18
18,GCUUCAUGCACGGUUCUAUTT against Cib2,inactive: -0.272
19,GCUGUGUCGUUCAAAAGAATT against Cd80,inactive: -0.867
20,GCCUGACUUCAGACUAUUUTT against Stxbp5l,inactive: -2.58
21,CCCUGAUCCUAGUGGAAAUTT against Kng1,inactive: 0.425
22,GGUUGUACUGAGUAGCUGGTT against Slc7a4,inactive: -1.31
23,GCAGCUAUUGAGCAUGGUGTT against Atp6v1g3,inactive: 0.463
24,GAGUGUGAAGAUAGACUUCTT against Myl4,inactive: -0.222
